Laboratory results published in PMC2757719.
No constants are given. Whether binding was seen depends on the method and setting. In cells and extracts the contact can be indirect. Here binding means that the protein was enriched with, or labelled near, the bait; the list need not be complete.

The chains behind the UniProt entries cited, without tags or fusion partners.
UniProt Q93009: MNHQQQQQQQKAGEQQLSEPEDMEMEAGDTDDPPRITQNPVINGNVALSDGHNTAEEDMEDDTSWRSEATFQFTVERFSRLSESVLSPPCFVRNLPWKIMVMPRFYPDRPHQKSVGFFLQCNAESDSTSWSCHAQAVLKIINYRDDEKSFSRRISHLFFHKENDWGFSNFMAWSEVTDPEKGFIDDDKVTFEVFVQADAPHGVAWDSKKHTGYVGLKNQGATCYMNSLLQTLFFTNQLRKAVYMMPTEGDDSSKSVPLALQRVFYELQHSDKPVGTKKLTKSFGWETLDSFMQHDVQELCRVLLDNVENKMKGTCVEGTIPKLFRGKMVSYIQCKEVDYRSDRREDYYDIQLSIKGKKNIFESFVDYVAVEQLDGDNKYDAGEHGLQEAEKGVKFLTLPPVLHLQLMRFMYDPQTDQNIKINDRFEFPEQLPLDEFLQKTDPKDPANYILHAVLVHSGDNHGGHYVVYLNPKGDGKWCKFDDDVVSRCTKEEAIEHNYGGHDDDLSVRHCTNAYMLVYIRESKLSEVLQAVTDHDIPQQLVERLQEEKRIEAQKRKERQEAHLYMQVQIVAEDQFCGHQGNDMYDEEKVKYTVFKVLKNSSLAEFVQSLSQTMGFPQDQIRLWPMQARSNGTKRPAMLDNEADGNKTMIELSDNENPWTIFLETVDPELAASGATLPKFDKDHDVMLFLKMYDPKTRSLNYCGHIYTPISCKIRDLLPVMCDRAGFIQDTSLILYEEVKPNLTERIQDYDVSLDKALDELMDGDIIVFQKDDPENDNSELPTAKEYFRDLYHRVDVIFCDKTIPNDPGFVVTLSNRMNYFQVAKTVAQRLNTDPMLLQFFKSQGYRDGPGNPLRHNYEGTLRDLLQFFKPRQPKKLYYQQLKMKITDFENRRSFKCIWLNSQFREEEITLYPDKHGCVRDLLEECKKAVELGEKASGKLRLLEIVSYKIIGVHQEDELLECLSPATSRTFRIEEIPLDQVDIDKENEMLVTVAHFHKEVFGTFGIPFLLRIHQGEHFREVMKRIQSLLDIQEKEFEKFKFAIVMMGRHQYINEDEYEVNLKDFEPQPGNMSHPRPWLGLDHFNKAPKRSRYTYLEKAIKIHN
UniProt P49915: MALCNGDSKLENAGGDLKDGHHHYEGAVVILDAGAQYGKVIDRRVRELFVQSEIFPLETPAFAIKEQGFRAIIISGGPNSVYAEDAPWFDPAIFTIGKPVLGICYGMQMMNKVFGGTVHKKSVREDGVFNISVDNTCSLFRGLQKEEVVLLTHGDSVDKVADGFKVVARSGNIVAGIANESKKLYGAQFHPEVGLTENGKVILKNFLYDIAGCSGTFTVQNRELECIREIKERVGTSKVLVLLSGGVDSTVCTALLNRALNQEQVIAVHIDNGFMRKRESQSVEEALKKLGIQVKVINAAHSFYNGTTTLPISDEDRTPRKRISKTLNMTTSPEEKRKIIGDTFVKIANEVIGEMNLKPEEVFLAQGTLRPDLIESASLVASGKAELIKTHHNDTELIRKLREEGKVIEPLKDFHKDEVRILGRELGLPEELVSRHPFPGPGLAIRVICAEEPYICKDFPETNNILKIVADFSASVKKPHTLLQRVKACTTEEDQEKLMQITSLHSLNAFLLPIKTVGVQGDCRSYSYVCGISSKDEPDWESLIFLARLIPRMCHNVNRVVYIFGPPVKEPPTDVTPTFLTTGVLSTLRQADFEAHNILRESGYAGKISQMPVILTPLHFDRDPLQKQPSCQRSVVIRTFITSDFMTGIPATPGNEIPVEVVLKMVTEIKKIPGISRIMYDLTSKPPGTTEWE

Target: USP7 (ubiquitin specific protease USP7), full length (human) (UniProt Q93009)
Experiment: affinity purification with mass spectrometry; purified USP7 covalently coupled to Affi-Gel 10 at 0, 0.5, 1 or 2 mg per ml resin; HeLa whole cell lysate applied; column buffer 50 mM HEPES pH 7.5, 100 mM NaCl, 1 mM DTT, 0.1 mM EDTA, 10% glycerol; eluted with 1 M NaCl then 1% SDS; silver-stained band identified by MALDI-ToF; only the target purified

Substance: GMP synthetase (GMPS), endogenous in HeLa whole cell lysate (from UniProt P49915 1-693) (enzyme)
- binding: binds
